# Results of single-concentration screens

Measurements from “University of Dundee, Small-Polar-MMV Screening Library” (2021), ChEMBL document CHEMBL3988442.

Results are given as percent effect.
How 0% and 100% were set is not recorded. Most values in the screen are low, and negative values occur.
Compounds were drawn at random from those tested, without regard to their results.
Two or more numbers in one place are separate tests of the same structure; such repeats can differ widely.

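Phenotypic screen: M. tuberculosis growth, glucose 7H9 medium, 3 days; the read-out is not stated. Concentration: 50 µM. Direction is inferred from retests: higher values go with more growth inhibition. About 69,000 compounds were tested under these conditions; 1.1% (about 760) showed 50% or more at least once.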

compound,Percent Effect
FC(F)(F)c1n[nH]c2c1CN(CCc1ccccn1)CC2,-20.39
CC(C)=CCN1CCc2onc(-c3ccc(F)c(F)c3)c2C1,-35.31 and 0.8359
CCNc1cc2c(nn1)CCN(C(=O)Cc1ccc(C)s1)C2,-12.67
O=C(O)C(F)(F)F.[H][C@@]12CCN(c3ncc(F)cn3)[C@]1([H])CC[C@@H](C(=O)N1CCC(C)CC1)O2,-5.648 and 21.6
CNc1cc(N2CCCC2CNCc2ccco2)ncn1 (stereo not drawn),6.463
[H][C@@]12COC[C@H](C(=O)N3CCOCC3)[C@]1([H])CN(CC1CC1)C2,-6.337 and -8.137
O=C(C1CCCOC1)N1CCCc2ccccc21 (stereo not drawn),23.75 and 3.074
Cc1cc(CC(C)Nc2nc(-c3cccnc3)nc3c2CNC3)[nH]n1 (stereo not drawn),9.333
CC(C)=CCN1C[C@@H](C(=O)O)C[C@H](C(=O)Nc2ccc(C)nc2)C1,17.6 and -6.327
CCn1ncc2c(C(F)(F)F)cc(-c3cnn(C)c3)nc21,23.24
O=C(O)C(F)(F)F.[H][C@@]12CCN(CC3CC3)C[C@]1([H])[C@H](C(=O)NCc1ccco1)CCO2,-4.239
[H][C@@]12CCN(Cc3cc(C)on3)C[C@@]1([H])O[C@@H](C)C2,8.364
Cc1[nH]c2ccc(CNc3cc(C(N)=O)ccn3)cc2c1C,12.22
CC(C)c1nccn1CCCNC(=O)c1ccc(-c2cccnc2)nc1,8.41
O=C(O)C(F)(F)F.[H][C@@]12CN(Cc3ccco3)CCO[C@]1([H])CN(S(=O)(=O)CC)C2,-3.254 and -28.83
CCc1ccc2c(C3CN(S(C)(=O)=O)C3)ncn2c1,-3.181 and -68.07
Cc1cnn(CC2CCCCN2CC(=O)Nc2nncs2)c1 (stereo not drawn),18.37
CCN(CCO)C(=O)C1CCC(=O)N(CCc2cccc(F)c2)C1 (stereo not drawn),32.79
[H][C@]12CC[C@]([H])(CN(Cc3ccncc3)C1)N(C(=O)CSc1ncccn1)C2,-8.187 and -3.863
c1ccc(NCCn2cc(C3CCCNC3)nn2)cc1 (stereo not drawn),8.885
Cc1cc(C(F)F)nn1CC(=O)NCc1nccn1C,7.793
O=C(O)C(F)(F)F.[H][C@]12CC[C@@]3(N=C(C)N(CC4CC4)C3=O)[C@@]1([H])CN(CC1CC1)C2,8.522
CS(=O)(=O)Cc1nc(CCc2ccccc2)nn1-c1ccccn1,21.22
CC(C#N)CSc1ccccc1NCC(=O)NC1CCCCC1 (stereo not drawn),5.92 and 0.8929
CN(C)S(=O)(=O)N1CCCC(c2cccc(Cc3ccccc3F)n2)C1 (stereo not drawn),-3.449
O=C(O)C(F)(F)F.[H][C@@]12CCN(Cc3c(C)noc3C)C[C@]1([H])[C@H](C(=O)NCC1CC1)CCO2,-0.9983 and 5.22
O=C(Cn1nc2c(cc1=O)CCCC2)NC(Cc1ccccc1)C(=O)O (stereo not drawn),-2.761
CC1CN(Cc2nnsc2Cl)CCN1c1nccs1 (stereo not drawn),19.79
COCCC(=O)N1CCCC1c1nc(C)c2c(n1)N(C)C(=O)CC2 (stereo not drawn),-31.33
CCOc1ccc(NC(C)=O)cc1S(=O)(=O)Nc1nccs1,-14.04 and -5.368
CN1CCOCC2(CCCN(C(=O)c3cn(C)cn3)C2)C1.O=C(O)C(F)(F)F (stereo not drawn),13.8 and -3.29
O=C(O)C(F)(F)F.[H][C@@]12CCN(CCOC)C[C@]1([H])[C@H](C(=O)N1CCCO1)CCO2,-12.6
O=C1NCCCc2[nH]c(Cc3cccc(F)c3)nc21,4.901
O=c1n(Cc2ccccn2)nc(C2CCNCC2)n1Cc1ccccc1,13.29
Cc1cc(C)c(CNC(=O)NCC(O)c2ccccc2)c(=O)[nH]1 (stereo not drawn),16.52
[H][C@@]12CCN(Cc3nc(C)cs3)C[C@@]1([H])O[C@@H](c1noc(C)n1)C2,-33.43
O=C(CCn1cncn1)N1CC[C@@H](c2ccc3ccccc3c2)[C@H](O)C1,9.383 and 27.43
CS(=O)(=O)c1nnc(NC(=O)CCc2cccc(Cl)c2)[nH]1,-2.178
COc1ccc(NC(=O)C(c2ccc(OC)cc2)N2CCOCC2)cc1 (stereo not drawn),-11.93
CC(C)c1noc(CN(Cc2ccc(F)cc2)C2CC2)n1,1.809
Cc1cc(NCCCOC(C)C)c2nncn2n1,-52.29
[H][C@]12C[C@H](C(=O)NC)N(C(C)=O)[C@@]1([H])CN(S(=O)(=O)c1ccccc1)C2,-19.91
Cc1ccn2cc(C(=O)N3CCCC(Cn4cc(CO)nn4)C3)nc2c1 (stereo not drawn),10.05
Cn1cc(S(=O)(=O)Nc2c(F)cccc2N2CCCC2)cn1,-3.68
CC(NC(=O)Cc1ccccc1F)(C(N)=O)c1cccc(Cl)c1 (stereo not drawn),-8.833
CCC(Nc1nc(CCN)nc2ccccc12)c1cc(C)ccn1 (stereo not drawn),0.09001 and 26.99
Cn1cc(-c2ccc(C3CCCCN3Cc3cccnc3)cn2)cn1 (stereo not drawn),22.47
CCc1n[nH]c(C2CN(C(=O)COCC(F)(F)F)CCO2)n1 (stereo not drawn),9.136
CC(C)N1CCCc2sc(C(=O)NC3CC3)nc21,8.605 and -4.895
CC(=O)N1CCOC2(CCCN(Cc3ccc(Cl)c(C(F)(F)F)c3)C2)C1 (stereo not drawn),7.556 and 4.469
Cc1ccsc1C(=O)N1CCc2ncc(Cn3cccn3)n2CC1,-29.49
CCc1ncc2c(n1)CN(CC(=O)NC1CCCCNC1=O)CC2 (stereo not drawn),-3.236 and -2.504
CC(=O)N1CCCC(C(=O)Nc2ccccc2Cc2ccccc2)C1 (stereo not drawn),3.819 and -3.676
CC(NC1(CNC(=O)NC2CC2)CCOCC1)c1ccccc1 (stereo not drawn),-11.65 and 4.622
O=C(NCCc1nnc2n1CCC2)NCC1(c2ccc(F)cc2)CC1,14.25
CC(=O)N(Cc1noc(C)n1)C1CCN(Cc2ncc(C(C)C)o2)C1 (stereo not drawn),-19.37
COCC1CC2(CCN(Cc3ccc(OC)cc3)CC2)CN1C(C)C.O=C(O)C(F)(F)F.O=C(O)C(F)(F)F (stereo not drawn),5.996
[H][C@@]12C[C@H](c3nc(C)no3)CN(S(=O)(=O)C3CC3)[C@]1([H])CCO2,5.944
[H][C@@]12C[C@H](C(=O)N3CCOCC3)[C@@]([H])(CN(S(=O)(=O)CCC)C1)O2,-23.93
COCC(Nc1ncnc2sc(C(=O)O)c(C)c12)c1ccnn1C (stereo not drawn),-24.62
O=C(Nc1cc(F)ccc1OCC1CCCO1)N1CCSCC1 (stereo not drawn),16.68
CC[C@@H]1N(Cc2ccncc2)CCC[C@]12CCC(=O)N2C.O=C(O)C(F)(F)F.O=C(O)C(F)(F)F,-9.752
CCC(=O)NCC(=O)Nc1ncc(I)cc1C,13.37
C=C(C)COc1ccccc1NC(=O)N1CCCCC1CO (stereo not drawn),-4.258
CNS(=O)(=O)c1ccc(CNC(=O)N(CC(C)C)C(C)C)cc1,-1.085
CC(C)(C)Oc1ccc(CN)c(C(F)(F)F)c1,-3.492
Cc1nc(C)c(C(=O)N2CCCC2c2nc(O)cc(C(C)C)n2)s1 (stereo not drawn),-9.532
NC(=O)C1CCN(S(=O)(=O)c2cnn(-c3ccccc3)c2)CC1,-5.728
[H][C@@]12CCC(=O)N(CCc3c[nH]cn3)[C@]1([H])CCN(c1ncc(F)cn1)C2,6.098
O=C(O)CCCc1ccc2c(c1)CC(=O)N2,-28.65
Cc1cccc(NC(=O)N2CCC(CO)(Nc3ccccc3)CC2)c1,0.8042 and -2.782
Cc1nc(C)c(C)c(N2C[C@@H](CN3CCCN(C)CC3)[C@@H](CO)C2)n1,10.01
N#Cc1ccc(CNC(=O)NCCNC(=O)C2CCCC2)c(F)c1,26.24
CN(C)C(=O)CN1CC=C(c2cnn(Cc3ccccc3)c2)CC1,34.04 and 1.225
c1cc(CNCC2CNc3ccnn3C2)cc(N2CCCCC2)n1 (stereo not drawn),-1.701
CC(=O)N(CCC(=O)NC1(C#N)CCC1)Cc1ccccc1,-20.08
COCCCn1ccc(NC(=O)NCCc2cccnc2)n1,-11.8
Cc1ccccc1CC(=O)N(C)C1CCCC1,-11.61
Cc1nc2c(c(NCc3ccccc3)n1)CCN(C(=O)NC(C)C)CC2,-21

10 of the entries, repeated:

compound,Percent Effect
Cc1cc(CC(C)Nc2nc(-c3cccnc3)nc3c2CNC3)[nH]n1 (stereo not drawn),9.333
CC(C#N)CSc1ccccc1NCC(=O)NC1CCCCC1 (stereo not drawn),5.92 and 0.8929
Cc1ccn2cc(C(=O)N3CCCC(Cn4cc(CO)nn4)C3)nc2c1 (stereo not drawn),10.05
Cc1nc2c(c(NCc3ccccc3)n1)CCN(C(=O)NC(C)C)CC2,-21
CC(NC1(CNC(=O)NC2CC2)CCOCC1)c1ccccc1 (stereo not drawn),-11.65 and 4.622
FC(F)(F)c1n[nH]c2c1CN(CCc1ccccn1)CC2,-20.39
COCCCn1ccc(NC(=O)NCCc2cccnc2)n1,-11.8
O=C1NCCCc2[nH]c(Cc3cccc(F)c3)nc21,4.901
CN1CCOCC2(CCCN(C(=O)c3cn(C)cn3)C2)C1.O=C(O)C(F)(F)F (stereo not drawn),13.8 and -3.29
CCn1ncc2c(C(F)(F)F)cc(-c3cnn(C)c3)nc21,23.24